In PMC2193228:
No constants are given. Whether binding was seen depends on the method and setting. In cells and extracts the contact can be indirect. Some entries that bind do so weakly or less than the wild type.

Chains of the proteins cited; added tags and fusions are not shown.
UniProt Q9Y812: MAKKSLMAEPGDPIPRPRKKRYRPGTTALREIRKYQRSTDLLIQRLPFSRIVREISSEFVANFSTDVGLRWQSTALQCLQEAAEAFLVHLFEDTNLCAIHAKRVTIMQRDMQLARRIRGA

Target: Sim3 (S. pombe (endogenous in S. pombe)) (UniProt Q9USQ4)
Experiment: co-IP; cells overexpressing HA-tagged histones (nmt41x-HA-CENP-A^Cnp1; inv1-H3-HA; inv1-H4-HA); Figure S6

HA-tagged CENP-A^Cnp1 (from UniProt Q9Y812 1-120)
binding: binds
